Measurements from “University of Dundee, Small-Polar-MMV Screening Library” (2021), ChEMBL document CHEMBL3988442.

T. brucei: 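Whole-parasite assay of Trypanosoma brucei over 72 hours; the read-out is not stated. Compounds at 30 µM. Direction is inferred from retests: higher values go with stronger inhibition. Values scatter widely below zero; nearly all retest evidence comes from the higher of the two concentrations used. Of about 64,000 compounds tested this way, about 940 (1.5%) reached 50% or more in at least one test.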
Toxoplasma: 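Assay of Toxoplasma gondii numbers, read through their beta-galactosidase reporter with a colour substrate. Concentration: 10 µM. Higher reads as fewer parasites (inferred from which compounds were picked for retests). Of about 67,000 compounds tested this way, about 260 (0.38%) reached 50% or more in at least one test.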

Values are the deposited “Percent Effect”, in %. The controls that fix the scale are not given in the record; negative values are as filed. The compounds are a random part of those screened.

For CC(C)c1nsc(N2CCc3sccc3C2)n1 the result was T. brucei: -48.3%; Toxoplasma: 0.8974%. For CCC(C)C(=O)NCc1cccc(N2CCCCC2=O)c1 (stereo unspecified) the result was T. brucei: 20.7%; Toxoplasma: 4.053%. Result for CC(C)OCCCNC(=O)CN1CCC(N2CCN(C)C2=O)CC1 was T. brucei: -1.254%. For CNc1ccc(Cl)cc1C(=O)N1CCC(Cn2cc(CN)nn2)CC1 the result was T. brucei: 2.638%; Toxoplasma: 16.85%.

[H][C@]12CC[C@]([H])(CN(S(=O)(=O)c3cccc(Cl)c3C)C1)N(C)C2=O gave T. brucei: -21.34%; Toxoplasma: 5.463%. With Cc1cnc(CN(C)C2CCN(CCc3cnn(C)c3)C2)o1 (stereo unspecified) the screen gave T. brucei: -0.3892%; Toxoplasma: 14.78%. For O=C(NCCn1ccnc1)N1CCCC1c1ccc2c(c1)OCCO2 (stereo unspecified) the result was T. brucei: -6.115%; Toxoplasma: 9.39%. CCN1CCN(C(=O)c2ccnc(N(C)C)c2)CC1 gave T. brucei: -30.3%; Toxoplasma: 1.011%.

For CC(C)c1ncc2c(n1)CN(CC1CCCCO1)CC2 (stereo unspecified) the result was T. brucei: -4.531%; Toxoplasma: 4.843%. Result for CCc1ccc(C(=O)NC2CCc3nc(C)cn3C2)o1 (stereo unspecified) was T. brucei: 3.194%; Toxoplasma: -30.48%. For Cc1n[nH]c(C)c1C1CCCN1C(=O)c1cc(Br)c[nH]1 (stereo unspecified) the result was T. brucei: -10.83%; Toxoplasma: -1.193%. For CCN(C(=O)c1ccc2nnc(C3CCN(C)C3)n2c1)C(C)C.O=C(O)C(F)(F)F (stereo unspecified) the result was T. brucei: -49.77%; Toxoplasma: -35.6%.

Result for Fc1cccc(-c2nc(CN3CCCC3Cn3cccn3)co2)c1 (stereo unspecified) was T. brucei: -20.36%; Toxoplasma: 5.998%. For c1ccc(C2CCN(c3ncnc4c3CCNC4)CC2)cc1 the result was T. brucei: 50.1%; Toxoplasma: 19.85%. Result for [H][C@]12CC[C@]([H])(CN(Cc3cccnc3N)C1)N(Cc1c(C)noc1C)C2=O was T. brucei: -49%; Toxoplasma: 10.99%. For Cc1nc(N2CCN3CCCCC3C2)nc2cc(S(C)(=O)=O)ccc12 (stereo unspecified) the result was T. brucei: -7.546%; Toxoplasma: 6.266%.

Result for CN(C(=O)NCc1nccn1CCc1ccccc1)C1CCC1 was T. brucei: -25.71%; Toxoplasma: -24.12%. With [H][C@]12CCN(C(=O)c3cnoc3C)[C@@]1([H])CCC(=O)N2CC1CC1 the screen gave T. brucei: -43.42%; Toxoplasma: -13.19%. Result for O=C(O)C(F)(F)F.[H][C@@]12OCCN(C(=O)c3ccc(C)o3)[C@@]1([H])CC[C@@H]2OCc1ccccn1 was T. brucei: -22.62%; Toxoplasma: -3.326%. For c1cc(CNCC2CNc3ccnn3C2)cc(OC2CCCCC2)n1 (stereo unspecified) the result was T. brucei: 10.36%; Toxoplasma: -10.59%.

Result for COc1ccc(-c2nnc(SCC(=O)NCC(C)C)[nH]2)c(OC)c1 was T. brucei: 19.34%; Toxoplasma: 3.469%. For O=C(Nc1cnn(C2CCOCC2)c1)c1ccc2c(c1)OCO2 the result was T. brucei: -7.01%; Toxoplasma: 4.007%. With CN1C[C@@H](n2cnc(-c3ccccc3)c2-c2nccn2C)C[C@H]1C(=O)O the screen gave T. brucei: 1.352%; Toxoplasma: 2.06%. Result for CN1C(=O)C2(CCN(CC3CC3)CC2)c2ccccc21.O=C(O)C(F)(F)F was Toxoplasma: -0.4841%.

CN1CCc2ncc(CNc3cc(N(C)C)ncn3)n2CC1.O=C(O)C(F)(F)F gave T. brucei: -39.75%; Toxoplasma: -1.223%. Result for CC(NC(=O)NCCCN(C)S(C)(=O)=O)c1ccc(Cl)cc1 (stereo unspecified) was T. brucei: -18.01%; Toxoplasma: -5.873%. Result for O=C(CCCn1cncn1)N1CCCCC1c1nccs1 (stereo unspecified) was T. brucei: -66.96%; Toxoplasma: 4.651%. Cc1cccc(COC2COC3(CCN(Cc4ccoc4)CC3)C2)n1 (stereo unspecified) gave T. brucei: 3.792%; Toxoplasma: -2.685%.

For O=S(=O)(Nc1cnc(N2CCOCC2)nc1)c1ccc(Cl)cc1 the result was T. brucei: -29.25%; Toxoplasma: -26.67%. With O=C(O)C(F)(F)F.[H][C@]12CN(Cc3csc(C)n3)C(=O)[C@@]1([H])CN(c1ncccn1)C2 the screen gave Toxoplasma: -20.54%. Cc1ccc(CN2CC[C@@H](NC(=O)c3cccnc3)[C@H](O)C2)s1 read T. brucei: -15.43%; Toxoplasma: -1.465%. Cc1cc(C)n(CC2CN(CC(=O)Nc3nncs3)CCO2)n1 (stereo unspecified) gave T. brucei: 4.039%; Toxoplasma: 0.4235%.

O=C1N(Cc2ccc(F)c(F)c2)CCCC12CCN(C1CCCCC1)C2 (stereo unspecified) read T. brucei: 6.711%; Toxoplasma: -1.859%. COc1cc2c(c(OC)c1OC)CCN(CCn1nc(C)cc1C)CC2 gave T. brucei: -30.39%; Toxoplasma: 22.91%. Result for CCN(Cc1cccc2c1OCO2)C(=O)C(C)c1cccnc1 (stereo unspecified) was T. brucei: 6.783%; Toxoplasma: -0.7786%. CN(C)CC1CSCCCN1S(=O)(=O)c1ccc(C(F)(F)F)cc1 (stereo unspecified) read T. brucei: 7.559%; Toxoplasma: 4.118%.

With CCOCC(O)CN1CCN(C(=O)Cc2ccc3c(c2)CCO3)CC1 (stereo unspecified) the screen gave T. brucei: -19.11%; Toxoplasma: -7.622%. For Cc1cccnc1CN(C)C(C(=O)O)c1ccc(-n2cccn2)cc1 (stereo unspecified) the result was T. brucei: 38.92%; Toxoplasma: 17.22%. Result for Cc1cc(N[C@H]2CCCN(Cc3ccccc3)C2)n2nc(C)cc2n1 was T. brucei: -10.49%; Toxoplasma: 8.17%. Cc1nnc(C(C)N2CCCN(Cc3ccc(C#N)cc3)CC2)o1 (stereo unspecified) read T. brucei: -4.202%; Toxoplasma: -2.246%.

Result for Cc1noc(C)c1CN1CCN(C(=O)C(C(C)C)n2cncn2)CC1 (stereo unspecified) was T. brucei: -44.96%; Toxoplasma: -16.45%. Result for Cn1cnc2c1C(COCC1CCOCC1)CN(C(=O)c1ccco1)C2.O=C(O)C(F)(F)F (stereo unspecified) was T. brucei: -18.46%; Toxoplasma: 6.865%. c1cnn(-c2ccc(CCNC3CCN(C4CC4)C3)cc2)c1 (stereo unspecified) read T. brucei: -40.37%; Toxoplasma: -6.772%. Result for O=C(NCCNc1ncccn1)N1CCCC1c1ccncc1 (stereo unspecified) was T. brucei: -5.145%; Toxoplasma: -10.81%.

For reference, 6 entries once more:

* Cc1cc(C)n(CC2CN(CC(=O)Nc3nncs3)CCO2)n1 (stereo unspecified) | T. brucei: 4.039%; Toxoplasma: 0.4235%
* CCOCC(O)CN1CCN(C(=O)Cc2ccc3c(c2)CCO3)CC1 (stereo unspecified) | T. brucei: -19.11%; Toxoplasma: -7.622%
* O=S(=O)(Nc1cnc(N2CCOCC2)nc1)c1ccc(Cl)cc1 | T. brucei: -29.25%; Toxoplasma: -26.67%
* CN(C)CC1CSCCCN1S(=O)(=O)c1ccc(C(F)(F)F)cc1 (stereo unspecified) | T. brucei: 7.559%; Toxoplasma: 4.118%
* CC(C)OCCCNC(=O)CN1CCC(N2CCN(C)C2=O)CC1 | T. brucei: -1.254%
* Cc1noc(C)c1CN1CCN(C(=O)C(C(C)C)n2cncn2)CC1 (stereo unspecified) | T. brucei: -44.96%; Toxoplasma: -16.45%